Values of other authors in US20200016214A1, “PHOSPHOLIPID COMPOSITIONS AND THEIR PREPARATION” (Aker BioMarine Antarctic AS, priority 2014, published 2020).
At least one structure is not confirmed: it was looked up by name or label, or the drawing left a doubt.

Details: clinically proven

Structure (SMILES): CC/C=C\C/C=C\C/C=C\C/C=C\C/C=C\CCCC(=O)OCC [Vascepa®, ethyl eicosapentaenoic acid]
- LDL-C: without increasing
- triglyceride levels: significantly reduce
